The nature of this assay: qHTS Assay for Lipid Storage Modulators in Drosophila S3 Cells.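 On cell number change: cells counted by Cell Tracker Red CMTPX staining in the red channel.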 The note with it: BODIPY lipid droplet fluorescence, 18-24 h; for cell number change: measured here: cell count max response, cells fed with added oleic acid. The method, boiled down: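 Drosophila S3 cells got compounds at several concentrations plus oleic acid (400 uM solution). Laser-scanning cytometry with 488 nm excitation read lipid droplets at 500-530 nm and cells at 575-640 nm. Percent activity was relative to 20 uM Triacsin C.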
(In qHTS, concentration-response curves come from the screen itself.)

[1] abbreviates: measured here: cell number channel AC50, cells fed with added oleic acid.
The mark [2] stands for this setting: measured here: lipid fluorescence (Fed channel) AC50, cells fed with added oleic acid.

The list shows a part of the results. The main result of the screen is listed elsewhere. These columns were measured beside it and carry no call. Most of these compounds were active or inconclusive in the main read-out, so they are no random draw. Words in brackets tell the shape of the fitted curve; partial curves, single points and poor fits give uncertain potencies.

For orientation: AC50 means the concentration at which the activity in the assay is half-maximal. Lower therefore signals greater potency.

On to `CC(C)NC(=O)C(=O)N/N=C/c1ccco1`, for which the cell number change was -90.2%. Also, under setting [1], the AC50 is 4.11 µM [falling, full curve]. Also, the AC50 under setting [2] is 4.61 µM [falling, full curve]. With `Cc1ccc(NC2=NCC(Cc3ccc(Br)cc3)S2)cc1` (stereo unspecified), the cell number change was -60.9%. Under setting [1], the half-maximal activity concentration (AC50) is 16.4 µM [falling, single point]. For the same molecule, under setting [2], the AC50 was 16.4 µM [falling, single point]. For `CCCc1nc2ccccc2c(=O)n1N`, the AC50 under setting [1] was 0.731 µM [rising, single point]. In the case of `O=C(N/N=C\c1ccncc1)c1ccccc1O`, the cell number change was -31.4%. Further, under setting [1], the AC50 was 16.4 µM [falling, single point]. Moreover, under setting [2], the AC50 is 16.4 µM [falling, single point]. On to `CCOc1ccc(C(=O)NC2CCN(C(=O)NCc3ccccc3)CC2)cc1`, for which the cell number change was -4.82%. For the same molecule, the AC50 under setting [1] is 0.731 µM [rising, full curve, poor fit]. As to `CCCCn1c(N)c(N(CC(C)C)C(=O)c2ccc(C)c(S(=O)(=O)N3CCCCC3)c2)c(=O)[nH]c1=O`, the cell number change was -25%. The half-maximal activity concentration (AC50) under setting [1] was 0.184 µM [falling, full curve, poor fit]. Take `CC1(c2ccc3c(c2)OCO3)NC(=O)N(CC(=O)c2ccc[nH]2)C1=O` (stereo unspecified): the cell number change was determined as 24.5%. `CNCCCC12CCC(c3ccccc31)c1ccccc12`: the AC50 by setting is: under setting [1], 13 µM [rising, partial curve, poor fit]; under setting [2], 29.1 µM [rising, single point]. As for `COc1ccc(CCNC(=S)N2CCN(S(=O)(=O)c3ccccc3F)CC2)cc1`, under setting [2], the AC50 was 20.6 µM [falling, single point]. For `Cc1ccccc1CC(=O)Nc1ccc2c(c1)CCC2`, the cell number change stood at 43.3%. Under setting [1], the AC50 is 32.6 µM [rising, single point]. As to `C[C@H](NC(=O)c1nc[nH]c1C(=O)NCC(=O)OC(C)(C)C)c1ccccc1`, the cell number change stood at 17.7%. Also, the AC50 under setting [2] is 2.06 µM [rising, partial curve]. For `CC(=O)c1cccc(NC(=S)NC(=O)c2ccccc2Br)c1`, the cell number change is -26%. In addition, under setting [2], the AC50 was 0.517 µM [falling, single point]. As to `COc1ccc([C@H]2CC(=O)C=C(c3cccc(Cl)c3)C2)cc1OC`, the cell number change is -49.7%. In addition, the AC50 under setting [1] was 5.8 µM [falling, partial curve]. For the same molecule, under setting [2], the concentration at half-maximal activity (AC50) is 6.51 µM [falling, partial curve]. For `CCOC(=O)c1c(NC(=O)C2C3C=CC(C3)C2C(=O)O)sc2c1CC(C)CC2` (stereo unspecified), the cell number change amounted to 2.87%. Moreover, the concentration at half-maximal activity (AC50) under setting [2] was 0.291 µM [falling, partial curve, poor fit]. In the case of `Cc1cc([N+](=O)[O-])cc2c1-c1ncccc1C2=Nc1ccccc1`, the cell number change was -0.845%. As to `CCOC(=O)/C(=N\Nc1ccccc1Cl)N(C)C1CCS(=O)(=O)C1` (stereo unspecified), the cell number change is -25.1%. The AC50 under setting [2] is 1.03 µM [falling, full curve]. On to `Cn1c(SCc2ccccc2)nnc1-c1cnccn1`, for which the cell number change was found to be 32.1%. In addition, the concentration at half-maximal activity (AC50) under setting [1] was 5.17 µM [rising, full curve, poor fit]. Moreover, the AC50 under setting [2] is 0.206 µM [falling, full curve, poor fit].

`COc1ccc(C(C)(C)C)cc1NC(=O)c1ccc2ncsc2c1`: the cell number change is 26.5%. The concentration at half-maximal activity (AC50) under setting [2] was 0.146 µM [falling, full curve, poor fit].

With `O=C(COc1ccccc1Br)NC1CCCC1`, the cell number change was -14.6%. In the case of `O=C(C1CCC(=O)N(C2CCCC2)C1)N1CCC(Oc2cccc(F)c2)CC1` (stereo unspecified), the AC50 under setting [2] was 0.092 µM [falling, full curve, poor fit]. In the case of `COc1ccc(N2CCN(CC(O)COC(C)(C)C)CC2)cc1` (stereo unspecified), the cell number change is -17.3%. Turning to `Cc1ccc(NC(=O)N2N=C(c3ccc(F)cc3)CC2c2ccc(F)cc2)cc1` (stereo unspecified), the cell number change was -8.28%. The concentration at half-maximal activity (AC50) under setting [2] is 1.84 µM [rising, partial curve]. On to `CSCCC1NC(=S)N(Cc2ccccc2)C1=O` (stereo unspecified), for which the cell number change was -35.5%. For the same molecule, under setting [1], the concentration at half-maximal activity (AC50) was 32.6 µM [falling, single point]. Also, the AC50 under setting [2] was 29.1 µM [falling, single point]. For the molecule `O=c1[nH]n(-c2ccc(Cl)cc2)c(=O)c(Cl)c1Cl`, the cell number change was -4.37%. Moreover, under setting [2], the concentration at half-maximal activity (AC50) is 0.116 µM [falling, full curve]. Take `Cn1c(O)c(N=NC(=O)c2ccccc2O)c2ccccc21`: the cell number change is -27.9%. In addition, the AC50 under setting [2] is 18.4 µM [falling, partial curve]. Turning to `CN(C(=O)C1CCCN(c2ncnc3c2nc2n3CCCCC2)C1)c1cccc(Cl)c1` (stereo unspecified), the cell number change is -14.2%. The concentration at half-maximal activity (AC50) under setting [2] was 29.1 µM [falling, single point]. As for `N/C(=N\OC(=O)/C=C/c1ccccc1)c1ccc(Cl)cc1`, the cell number change was -43.7%. For the same molecule, the AC50 under setting [1] is 16.4 µM [falling, single point]. Under setting [2], the concentration at half-maximal activity (AC50) was 16.4 µM [falling, single point]. For the molecule `COCCCNC(=O)c1ccc2nc(Cc3ccc(OC)cc3)oc2c1`, the cell number change worked out at 16.6%.

On to `NC(=O)Cn1nnc(-c2ccc(NC(=O)c3ccc(F)cc3)cc2)n1`, for which the cell number change is 16.9%. Consider `CCOC(=O)c1cc(C)nn1-c1nc(Cl)cc(OC)n1`, for which the cell number change worked out at 22.1%. Further, under setting [2], the half-maximal activity concentration (AC50) is 1.46 µM [rising, full curve, poor fit]. With `CC(C(=O)NCC(=O)Nc1ccc(F)c(F)c1F)N1CCN(Cc2ccc(C#N)cc2)CC1` (stereo unspecified), the cell number change was 12%. In the case of `CCCCCCSc1ccc(-c2nc3ccc(C)cn3c2NCc2ccccc2)cc1OC`, under setting [2], the AC50 was 29.1 µM [falling, partial curve, poor fit]. Regarding `CCCOc1ccc(C(=O)Nc2ccc(CN3CCOCC3)cc2)cc1`, the cell number change is -11.4%. Besides, the half-maximal activity concentration (AC50) under setting [2] is 29.1 µM [rising, single point].

With `COCCNC(=O)C(c1ccco1)N(C(=O)Cn1nnc2ccccc21)c1ccccc1C` (stereo unspecified), the half-maximal activity concentration (AC50) under setting [1] is 5.17 µM [falling, partial curve]. On to `CCn1c(=O)c(-[n+]2ccccc2)c(O)c2ccccc21`, for which the cell number change worked out at 7.35%. Moreover, under setting [2], the AC50 was 29.1 µM [falling, single point].

In the case of `COc1cc(-c2nc(C(=O)NCC3CCCO3)cc3c2[nH]c2ccccc23)cc(OC)c1OC` (stereo unspecified), the cell number change is -22.7%. For the same molecule, the AC50 under setting [2] is 18.4 µM [falling, partial curve].

As to `Cc1cc(C)c2c(c1)-c1c(ssc1=S)C(C)(C)N2C(=O)CSc1nncn1C`, the cell number change is -27.5%. The concentration at half-maximal activity (AC50) under setting [2] was 25.9 µM [falling, partial curve].

On to `CCOc1ccc(NC(=O)CCC(=O)NNS(=O)(=O)c2ccccc2[N+](=O)[O-])cc1`, for which the cell number change is 2.33%. The half-maximal activity concentration (AC50) under setting [2] is 29.1 µM [falling, single point].

Turning to `COc1ccc(C(=O)NC(=S)NNC(=O)CCc2ccccc2)cc1`, the cell number change was -19.3%. In addition, the AC50 under setting [2] was 29.1 µM [falling, single point].

Turning to `COc1ccccc1-c1nnc(SCC(=O)Nc2ccc3[nH]c(=O)[nH]c3c2)n1N`, the cell number change is -9.73%. Further, under setting [2], the AC50 was 0.00461 µM [falling, full curve, poor fit]. On to `O=C(N/N=C/c1ccccn1)c1ccc(NC(=O)c2ccc(F)cc2)cc1`, for which the cell number change was determined as 16.2%. In addition, the AC50 under setting [2] was 0.58 µM [falling, single point]. With `CCN1CC2([N+](=O)[O-])CC=C(OC)C([N+](=O)[O-])(C1)C2` (stereo unspecified), the cell number change came out at 8.75%. In addition, the AC50 under setting [2] is 6.51 µM [falling, full curve, poor fit]. For the molecule `COc1ccc(CC(=O)Nc2ccncc2Cl)cc1`, the cell number change worked out at 40%. The AC50 under setting [1] is 29.1 µM [rising, single point]. Consider `CC(C)c1ccc(CNn2cnnc2)cc1`, for which the cell number change is 11.7%. For `O=C(N/N=C/c1c(Cl)cccc1Cl)c1ccc(-n2cnnn2)cc1`, the cell number change was -2.34%. The AC50 under setting [2] is 7.31 µM [rising, partial curve, poor fit].

Take `N#Cc1cc2c(nc1SC1CC(=O)N(c3ccccc3)C1=O)CCC2` (stereo unspecified): the cell number change was determined as 31.3%. Further, the AC50 under setting [1] is 5.17 µM [rising, partial curve]. Moreover, under setting [2], the AC50 was 1.16 µM [rising, full curve]. For `Cc1cc(NC(=O)Nc2cccc(Cl)c2)n(-c2ccccn2)n1`, the cell number change came out at 19%. Under setting [1], the concentration at half-maximal activity (AC50) is 6.51 µM [rising, single point]. Besides, under setting [2], the AC50 is 6.51 µM [rising, partial curve]. As for `O=C(Nc1cccc(C(F)(F)F)c1)n1cc(-c2ccccn2)c(N2CCOCC2)n1`, the cell number change was -26.1%. `O=C(OCN1C(=O)c2ccccc2C1=O)c1cccs1`: the cell number change is -14.4%. Consider `CCOC(=O)N1CCN(CC(=O)c2ccc3c(c2)CCN3C(C)=O)CC1`, for which the AC50 runs as follows: under setting [1], 3.66 µM [falling, single point]; under setting [2], 4.11 µM [falling, single point].

As to `Cc1c(/C=N/NC(N)=O)c2ccccn2c1C(=O)c1ccc(F)cc1`, the cell number change was -19%.

Turning to `COc1cccc(C(=O)NC(C)c2ccc(Br)cc2)c1` (stereo unspecified), the cell number change amounted to 11.7%. Under setting [2], the AC50 was 0.58 µM [rising, full curve]. `CCOc1ccc2c(c1)-c1c(ssc1=S)C(C)(C)N2C(=O)c1ccco1`: the cell number change was -73.1%. For the same molecule, the half-maximal activity concentration (AC50) under setting [1] was 9.2 µM [falling, partial curve]. The AC50 under setting [2] is 7.31 µM [falling, partial curve]. Regarding `CC1(C)Cc2c(cnn2-c2ccc(F)cc2)C(NC(=O)c2ccco2)C1` (stereo unspecified), the cell number change is -1.52%. The AC50 under setting [2] is 29.1 µM [falling, single point]. With `O=c1[nH]c(/C(=N\O)c2ccccc2)no1`, the cell number change was -11.1%. Also, the concentration at half-maximal activity (AC50) under setting [2] is 0.0731 µM [falling, full curve, poor fit]. `CN(Cc1ccco1)C(=O)C(Cc1ccccc1)NS(=O)(=O)c1ccc2c(c1)CCC(=O)N2` (stereo unspecified): the cell number change was -42.4%. For the same molecule, the concentration at half-maximal activity (AC50) under setting [1] is 29.1 µM [falling, single point]. Further, the AC50 under setting [2] is 16.4 µM [falling, single point]. In the case of `OCCN=c1cc(-c2ccccc2)oc2ccc(Cl)cc12`, the cell number change is -19.1%. Also, the half-maximal activity concentration (AC50) under setting [1] is 0.164 µM [falling, full curve, poor fit]. Besides, the AC50 under setting [2] is 0.259 µM [falling, partial curve, poor fit]. `C=CCn1c(O)c(N=NC(=S)Nc2cccc(C)c2)c2ccccc21`: the cell number change is -77%. The AC50 under setting [1] was 16.4 µM [falling, partial curve]. Further, under setting [2], the half-maximal activity concentration (AC50) is 13 µM [falling, partial curve]. `O=C(COC(=O)c1cc(=O)[nH]c2ccccc12)c1cccs1`: the cell number change amounted to 1.19%. Besides, the half-maximal activity concentration (AC50) under setting [2] was 6.51 µM [falling, single point].

Turning to `Cc1ncoc1C(=O)N1CCCC(C(=O)c2ccc(-c3ccccc3)cc2)C1` (stereo unspecified), the cell number change was -22.8%.
